These results are taken from ChEMBL document CHEMBL5550168, “Structure-based design of multitargeting ChEs-MAO B inhibitors based on phenyl ring bioisosteres: AChE/BChE selectivity switch and drug-like characterization” (Eur J Med Chem, 2024).

The nature of this data set: in vitro. Particulars: mouse.

`COc1cc2c(cc1OC)C(=O)C(CC1CCN(Cc3ccccc3)CC1)C2` (stereo unspecified) [DONEPEZIL] came in with an apparent permeability coefficient (Papp) at 2 h, 20 µM of 8.9 ×10⁻⁶ cm/s.
